The values that follow come from patent US20140162952A1.

Chains of the proteins cited; added tags and fusions are not shown. Lines headed by an entry give the natural chain unless they say otherwise; changes in a name come on top. Residues count along the entry.
UniProt P03372: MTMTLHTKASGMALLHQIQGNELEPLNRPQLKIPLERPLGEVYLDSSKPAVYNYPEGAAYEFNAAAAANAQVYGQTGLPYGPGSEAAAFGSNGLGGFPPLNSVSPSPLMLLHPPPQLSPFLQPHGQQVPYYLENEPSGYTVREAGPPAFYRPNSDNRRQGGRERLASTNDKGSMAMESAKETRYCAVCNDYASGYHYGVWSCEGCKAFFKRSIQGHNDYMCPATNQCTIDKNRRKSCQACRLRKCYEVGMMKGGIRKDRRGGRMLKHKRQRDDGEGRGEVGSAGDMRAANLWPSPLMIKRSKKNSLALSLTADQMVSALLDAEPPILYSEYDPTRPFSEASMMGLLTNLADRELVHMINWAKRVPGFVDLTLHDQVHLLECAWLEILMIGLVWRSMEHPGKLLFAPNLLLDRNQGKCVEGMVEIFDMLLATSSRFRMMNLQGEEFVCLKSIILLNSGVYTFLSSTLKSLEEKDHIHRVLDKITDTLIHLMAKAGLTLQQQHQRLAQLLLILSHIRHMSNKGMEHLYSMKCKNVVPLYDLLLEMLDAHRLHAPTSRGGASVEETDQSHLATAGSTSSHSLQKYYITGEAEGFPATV
UniProt Q99623: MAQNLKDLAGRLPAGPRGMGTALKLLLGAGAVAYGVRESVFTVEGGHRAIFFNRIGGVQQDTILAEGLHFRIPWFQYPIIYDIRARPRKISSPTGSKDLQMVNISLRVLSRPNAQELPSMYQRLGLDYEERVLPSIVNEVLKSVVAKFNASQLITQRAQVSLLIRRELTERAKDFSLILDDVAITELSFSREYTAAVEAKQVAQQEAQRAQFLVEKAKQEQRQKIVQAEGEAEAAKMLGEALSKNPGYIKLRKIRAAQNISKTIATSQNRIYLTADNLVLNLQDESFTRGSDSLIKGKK
UniProt P27986, residues 2-724: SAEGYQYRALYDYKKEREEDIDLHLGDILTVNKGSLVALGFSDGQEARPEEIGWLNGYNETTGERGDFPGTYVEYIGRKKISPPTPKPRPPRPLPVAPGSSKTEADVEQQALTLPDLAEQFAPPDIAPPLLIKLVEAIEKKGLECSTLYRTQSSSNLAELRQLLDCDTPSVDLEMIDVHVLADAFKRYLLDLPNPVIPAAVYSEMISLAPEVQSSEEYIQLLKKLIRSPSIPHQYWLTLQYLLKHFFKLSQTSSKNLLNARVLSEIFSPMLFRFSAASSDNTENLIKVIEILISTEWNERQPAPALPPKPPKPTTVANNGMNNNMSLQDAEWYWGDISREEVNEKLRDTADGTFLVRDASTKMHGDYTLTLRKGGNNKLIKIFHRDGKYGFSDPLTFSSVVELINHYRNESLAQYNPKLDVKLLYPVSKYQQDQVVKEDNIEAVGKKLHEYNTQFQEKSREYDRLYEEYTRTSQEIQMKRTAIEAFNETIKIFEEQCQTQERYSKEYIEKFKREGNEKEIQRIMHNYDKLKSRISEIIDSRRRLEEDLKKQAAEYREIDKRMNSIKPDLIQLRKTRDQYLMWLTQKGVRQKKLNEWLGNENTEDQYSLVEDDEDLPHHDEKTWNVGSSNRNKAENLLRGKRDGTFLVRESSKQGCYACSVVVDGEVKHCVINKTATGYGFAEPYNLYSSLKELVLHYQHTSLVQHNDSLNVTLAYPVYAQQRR
UniProt Q5TH69: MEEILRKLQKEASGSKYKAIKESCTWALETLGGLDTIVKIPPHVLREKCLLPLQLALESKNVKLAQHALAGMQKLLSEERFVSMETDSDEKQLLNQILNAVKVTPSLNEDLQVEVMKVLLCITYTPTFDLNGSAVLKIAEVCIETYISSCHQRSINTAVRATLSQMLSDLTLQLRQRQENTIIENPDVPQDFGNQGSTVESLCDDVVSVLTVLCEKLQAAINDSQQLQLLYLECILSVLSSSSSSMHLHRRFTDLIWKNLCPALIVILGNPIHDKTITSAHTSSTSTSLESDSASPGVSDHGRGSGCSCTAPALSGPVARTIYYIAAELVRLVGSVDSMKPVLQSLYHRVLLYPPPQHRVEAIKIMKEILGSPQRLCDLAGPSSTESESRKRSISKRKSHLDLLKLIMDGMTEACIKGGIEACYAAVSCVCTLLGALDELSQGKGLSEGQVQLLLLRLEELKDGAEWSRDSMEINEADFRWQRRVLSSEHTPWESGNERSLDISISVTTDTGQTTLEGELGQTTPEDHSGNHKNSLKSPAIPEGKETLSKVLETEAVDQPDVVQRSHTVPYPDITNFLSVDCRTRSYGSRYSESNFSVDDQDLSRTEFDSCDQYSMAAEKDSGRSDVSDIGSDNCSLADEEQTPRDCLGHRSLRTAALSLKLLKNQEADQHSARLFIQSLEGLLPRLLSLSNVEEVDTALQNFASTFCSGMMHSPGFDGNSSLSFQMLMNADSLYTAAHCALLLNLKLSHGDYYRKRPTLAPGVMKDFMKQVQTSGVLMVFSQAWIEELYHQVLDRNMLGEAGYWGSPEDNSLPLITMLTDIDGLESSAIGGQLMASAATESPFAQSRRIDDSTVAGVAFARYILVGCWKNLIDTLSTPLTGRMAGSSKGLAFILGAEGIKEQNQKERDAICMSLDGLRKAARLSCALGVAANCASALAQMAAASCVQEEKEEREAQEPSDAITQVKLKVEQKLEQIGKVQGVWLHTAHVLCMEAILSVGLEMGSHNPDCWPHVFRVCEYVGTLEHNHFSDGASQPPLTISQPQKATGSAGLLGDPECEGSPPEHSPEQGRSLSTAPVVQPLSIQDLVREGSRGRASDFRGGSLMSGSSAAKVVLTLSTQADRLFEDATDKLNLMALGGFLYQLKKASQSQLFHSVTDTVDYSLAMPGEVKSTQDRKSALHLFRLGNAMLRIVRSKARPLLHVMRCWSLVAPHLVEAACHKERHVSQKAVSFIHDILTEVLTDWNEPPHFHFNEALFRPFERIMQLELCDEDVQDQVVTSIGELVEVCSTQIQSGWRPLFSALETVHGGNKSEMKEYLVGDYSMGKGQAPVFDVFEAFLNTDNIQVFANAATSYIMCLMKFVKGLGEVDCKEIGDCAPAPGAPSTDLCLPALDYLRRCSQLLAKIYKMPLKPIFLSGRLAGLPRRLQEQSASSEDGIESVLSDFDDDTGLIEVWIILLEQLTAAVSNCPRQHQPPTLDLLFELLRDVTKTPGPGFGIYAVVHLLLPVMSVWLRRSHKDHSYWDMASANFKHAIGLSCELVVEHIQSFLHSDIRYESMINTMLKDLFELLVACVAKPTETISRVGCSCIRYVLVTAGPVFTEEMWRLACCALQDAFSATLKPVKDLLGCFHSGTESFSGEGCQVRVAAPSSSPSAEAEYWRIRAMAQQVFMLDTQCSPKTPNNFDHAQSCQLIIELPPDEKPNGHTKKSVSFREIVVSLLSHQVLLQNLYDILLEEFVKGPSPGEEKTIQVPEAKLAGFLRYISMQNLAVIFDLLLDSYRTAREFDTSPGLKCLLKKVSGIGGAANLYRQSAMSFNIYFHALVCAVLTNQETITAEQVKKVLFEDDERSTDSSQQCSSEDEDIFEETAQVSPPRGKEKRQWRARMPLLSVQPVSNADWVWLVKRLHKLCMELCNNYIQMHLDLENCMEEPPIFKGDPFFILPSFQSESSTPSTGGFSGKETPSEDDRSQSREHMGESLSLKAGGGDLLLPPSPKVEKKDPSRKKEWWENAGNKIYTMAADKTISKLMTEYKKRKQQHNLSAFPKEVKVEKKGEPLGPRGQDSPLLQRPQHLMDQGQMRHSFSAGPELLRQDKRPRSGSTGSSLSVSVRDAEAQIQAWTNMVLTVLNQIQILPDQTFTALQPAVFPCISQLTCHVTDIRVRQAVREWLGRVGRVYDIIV

The target of assay [1] is estrogen receptor α (ERα) (human) (UniProt P03372). The experiment in a line: anti-ERα co-IP from the cytoplasm fraction of BT-474 cells, 24 h, 10 nM E2 and/or 10 µM Peptide.
For assay [2] the target is unchanged. The experiment in a line: co-IP from the cytoplasm fraction of MCF-7 cells, 24 h, 10 nM E2 and/or 10 µM Peptide.
The target is the same in assay [3]. As to the kind of experiment: anti-ERα co-IP from KPL-3C cells, 24 h, 10 nM E2 and/or 10 µM Peptide.
The target in assay [4] is 6×His-tagged recombinant PHB2/REA protein (human) (UniProt Q99623). As to the kind of experiment: Ni-resin pull-down of 10 µg His-PHB2 mixed with lysate of Flag-tagged ERAP1 expressing cells and HA-peptide; blot for ERAP1.

Results are given in words; binding and its absence hold for the method and conditions named. In cells and extracts the contact can be indirect. Some binding calls cover weakened binding; strength is not graded here.

Turning to “PI3K (from UniProt P27986 2-724) (enzyme)”, the binding result in assay [1], in assay [2] and in assay [3] was “binds” in each case.
With “Flag-full-length ERAP1 (from UniProt Q5TH69 1-2177)”, in assay [4], the binding result is “binds”.
